Laboratory results taken from the M2OR odorant receptor database.
The list shows a part of the results, in another mix than the full data. The calls were merged from several studies; some rest on single wells. The list shows a part of the results. This is one part of the list.

Assays:
Details in all cases: stereoisomer not certain
OR5AN1 (Homo sapiens) = biological target: T1, OR5AN1 (Homo sapiens) (UniProt Q8NGI8)
T1 sequence (whole entry): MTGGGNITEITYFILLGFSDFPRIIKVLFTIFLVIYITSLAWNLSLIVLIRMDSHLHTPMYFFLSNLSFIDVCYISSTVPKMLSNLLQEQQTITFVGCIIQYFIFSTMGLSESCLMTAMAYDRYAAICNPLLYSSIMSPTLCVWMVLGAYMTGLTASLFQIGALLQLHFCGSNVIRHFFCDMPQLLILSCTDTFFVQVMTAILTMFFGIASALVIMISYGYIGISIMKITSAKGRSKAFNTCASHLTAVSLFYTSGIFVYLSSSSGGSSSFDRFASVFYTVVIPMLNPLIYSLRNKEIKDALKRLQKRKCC
How it was run: (§1)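 Values were gathered from published papers (main text and supplementary material), with extra details requested from the original authors when needed, and checked for typos and inconsistencies. Each receptor–molecule pair is called responsive (active) if the original authors judged the measured signal statistically different from baseline, and non-responsive (inactive) otherwise. Assay methods varied by source, often transient mammalian cell-line luciferase assays. Recorded details include cell line, G-protein, co-transfected protein and tags.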

OR5AR1 (Homo sapiens) = biological target: T2, OR5AR1 (Homo sapiens) (UniProt Q8NGP9)
T2 sequence (whole entry): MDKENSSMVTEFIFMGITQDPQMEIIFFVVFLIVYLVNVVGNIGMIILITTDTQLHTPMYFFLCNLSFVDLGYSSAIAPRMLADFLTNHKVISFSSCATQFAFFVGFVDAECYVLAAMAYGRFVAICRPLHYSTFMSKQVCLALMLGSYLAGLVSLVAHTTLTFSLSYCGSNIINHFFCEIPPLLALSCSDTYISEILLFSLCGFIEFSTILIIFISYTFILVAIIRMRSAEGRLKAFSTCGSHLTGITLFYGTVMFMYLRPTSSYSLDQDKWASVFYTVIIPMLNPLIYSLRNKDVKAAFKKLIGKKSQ
How it was run: as §1

OR5AS1 (Homo sapiens) = biological target: T3, OR5AS1 (Homo sapiens) (UniProt Q8N127)
T3 sequence (whole entry): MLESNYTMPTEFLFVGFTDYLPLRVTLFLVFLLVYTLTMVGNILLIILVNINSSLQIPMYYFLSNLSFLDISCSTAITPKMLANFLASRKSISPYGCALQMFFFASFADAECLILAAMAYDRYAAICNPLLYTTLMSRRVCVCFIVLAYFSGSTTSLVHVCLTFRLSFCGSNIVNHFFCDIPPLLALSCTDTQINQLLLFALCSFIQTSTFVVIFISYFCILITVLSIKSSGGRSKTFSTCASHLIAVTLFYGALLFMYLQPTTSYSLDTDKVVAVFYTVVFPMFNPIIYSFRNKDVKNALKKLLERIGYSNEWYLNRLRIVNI
How it was run: as §1

OR5AU1 (Homo sapiens) = biological target: T4, OR5AU1 (Homo sapiens) (UniProt Q8NGC0)
T4 sequence (whole entry): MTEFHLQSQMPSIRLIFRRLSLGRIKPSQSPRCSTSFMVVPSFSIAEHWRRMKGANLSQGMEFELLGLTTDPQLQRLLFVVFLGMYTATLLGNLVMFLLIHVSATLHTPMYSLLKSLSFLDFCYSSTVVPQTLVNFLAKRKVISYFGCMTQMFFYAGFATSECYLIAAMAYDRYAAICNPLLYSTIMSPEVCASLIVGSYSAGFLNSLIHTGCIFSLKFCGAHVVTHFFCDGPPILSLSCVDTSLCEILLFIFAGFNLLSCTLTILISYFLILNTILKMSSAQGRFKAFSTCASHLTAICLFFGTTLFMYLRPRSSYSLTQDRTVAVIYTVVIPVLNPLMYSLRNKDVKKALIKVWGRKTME
How it was run: as §1

OR5B17 (Homo sapiens) = biological target: T5, OR5B17 (Homo sapiens) (UniProt Q8NGF7)
T5 sequence (whole entry): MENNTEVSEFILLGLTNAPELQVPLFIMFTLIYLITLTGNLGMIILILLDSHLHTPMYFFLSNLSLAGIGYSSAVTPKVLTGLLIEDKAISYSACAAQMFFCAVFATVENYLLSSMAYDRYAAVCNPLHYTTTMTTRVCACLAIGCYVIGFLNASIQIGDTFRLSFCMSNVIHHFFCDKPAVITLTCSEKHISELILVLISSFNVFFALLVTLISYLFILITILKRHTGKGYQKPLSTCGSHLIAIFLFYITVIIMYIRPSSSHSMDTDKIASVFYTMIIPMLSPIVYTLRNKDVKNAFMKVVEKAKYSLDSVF
How it was run: as §1

OR5B2 = tested on: T6, OR5B2
T6 sequence (whole entry): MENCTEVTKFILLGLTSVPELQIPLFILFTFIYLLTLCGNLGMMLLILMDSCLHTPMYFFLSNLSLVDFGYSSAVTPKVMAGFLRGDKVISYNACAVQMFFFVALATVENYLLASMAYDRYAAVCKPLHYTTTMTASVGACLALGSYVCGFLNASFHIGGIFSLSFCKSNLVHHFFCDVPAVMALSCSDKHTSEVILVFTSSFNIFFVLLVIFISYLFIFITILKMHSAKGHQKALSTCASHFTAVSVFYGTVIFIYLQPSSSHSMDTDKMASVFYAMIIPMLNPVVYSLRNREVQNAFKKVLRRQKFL
How it was run: as §1

OR5B3 (Homo sapiens) = biological target: T7, OR5B3 (Homo sapiens) (UniProt Q8NH48)
T7 sequence (whole entry): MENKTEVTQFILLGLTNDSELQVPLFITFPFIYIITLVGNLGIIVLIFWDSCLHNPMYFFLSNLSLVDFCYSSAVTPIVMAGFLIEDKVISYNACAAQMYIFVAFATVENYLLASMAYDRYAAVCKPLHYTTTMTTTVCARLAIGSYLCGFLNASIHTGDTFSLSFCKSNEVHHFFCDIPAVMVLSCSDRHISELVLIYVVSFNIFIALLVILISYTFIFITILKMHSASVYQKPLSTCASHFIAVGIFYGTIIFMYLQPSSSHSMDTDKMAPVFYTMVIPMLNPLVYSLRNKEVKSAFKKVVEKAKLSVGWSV
How it was run: as §1

OR5BC = tested on: T8, OR5BC
T8 sequence (whole entry): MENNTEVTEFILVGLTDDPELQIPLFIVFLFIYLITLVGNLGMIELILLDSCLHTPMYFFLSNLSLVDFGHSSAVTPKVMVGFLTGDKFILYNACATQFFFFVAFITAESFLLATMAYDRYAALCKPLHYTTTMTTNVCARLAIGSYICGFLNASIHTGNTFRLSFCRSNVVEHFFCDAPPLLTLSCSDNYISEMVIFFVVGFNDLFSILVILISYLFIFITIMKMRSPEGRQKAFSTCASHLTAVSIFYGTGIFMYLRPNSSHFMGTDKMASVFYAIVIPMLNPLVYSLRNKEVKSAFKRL
How it was run: as §1

OR5BL = tested on: T9, OR5BL
T9 sequence (whole entry): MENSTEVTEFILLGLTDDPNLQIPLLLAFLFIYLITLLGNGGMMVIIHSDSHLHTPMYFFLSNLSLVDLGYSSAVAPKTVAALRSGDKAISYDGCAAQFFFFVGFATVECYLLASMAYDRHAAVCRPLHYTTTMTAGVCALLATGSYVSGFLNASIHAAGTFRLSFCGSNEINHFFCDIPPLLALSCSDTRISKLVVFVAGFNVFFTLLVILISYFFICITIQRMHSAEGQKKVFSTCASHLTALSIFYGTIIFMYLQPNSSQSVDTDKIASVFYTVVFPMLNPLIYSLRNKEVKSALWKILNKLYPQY
How it was run: as §1

OR5C1 (Homo sapiens) = biological target: T10, OR5C1 (Homo sapiens) (UniProt Q8NGR4)
T10 sequence (whole entry): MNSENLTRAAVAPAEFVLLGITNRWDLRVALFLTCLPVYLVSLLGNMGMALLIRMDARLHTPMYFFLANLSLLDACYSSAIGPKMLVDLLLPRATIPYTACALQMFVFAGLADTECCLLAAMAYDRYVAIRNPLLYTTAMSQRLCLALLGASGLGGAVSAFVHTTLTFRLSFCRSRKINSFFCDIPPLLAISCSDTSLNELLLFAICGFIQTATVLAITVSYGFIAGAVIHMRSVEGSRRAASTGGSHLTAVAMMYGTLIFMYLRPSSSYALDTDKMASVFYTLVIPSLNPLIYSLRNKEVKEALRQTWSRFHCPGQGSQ
How it was run: as §1

Measured: odorant receptor agonist call

CCCCOC(C)=O
inactive: all assays above
